{
  "source": "the supplement of paper PMC8256030",
  "note": "“And” between values parts separate entries of the source, which are not always exact repeats. Identical values can stand only once. The list shows a part of the results. This data set is noisy: repeats of one test often differ as much as different tests do.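 HEK293T cells were given each compound shortly before transfection with a reporter in which red mCherry is followed by the SARS-CoV-2 frameshift element and then GFP in the −1 frame, so GFP appears only after frameshifting.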",
  "data": [
    {"tested_on": "HEK293T", "test": "percent viability (nuclei count) relative to control; higher = more viable cells", "conditions": "10 µM; 24 h", "values": [
      {"compound": "CC(C)OC(=O)CCC/C=C\\C[C@@H]1[C@@H](/C=C/[C@@H](O)COc2cccc(C(F)(F)F)c2)[C@H](O)C[C@@H]1O", "note": "[travoprost]", "percent viability": "137% and 118%"},
      {"compound": "CCN1CCCC1CNC(=O)c1cc(S(N)(=O)=O)ccc1OC", "note": "(centres undefined)", "percent viability": "232%"},
      {"compound": "Cc1cc(C(C)(C)C)c(O)c(C)c1CC1=NCCN1", "note": "[oxymetazoline]", "percent viability": "207% and 141%"},
      {"compound": "Cc1c(C)c2c(c(C)c1O)CCC(C)(COc1ccc(CC3SC(=O)NC3=O)cc1)O2", "note": "(centres undefined) [troglitazone]", "percent viability": "251%"},
      {"compound": "Cc1cccc(C)c1OCC(C)N", "note": "(centres undefined)", "percent viability": "292%"},
      {"compound": "CCN(CC)CC#CCOC(=O)C(O)(c1ccccc1)C1CCCCC1", "note": "(centres undefined)", "percent viability": "369%"},
      {"compound": "CC(=O)[C@H]1CC[C@H]2[C@@H]3CCC4=CC(=O)CC[C@]4(C)[C@H]3CC[C@]12C", "note": "[progesterone]", "percent viability": "231% and 104%"},
      {"compound": "C[C@H]1CN(C[C@H](Cc2ccccc2)C(=O)NCC(=O)O)CC[C@@]1(C)c1cccc(O)c1", "note": "[alvimopan]", "percent viability": "134%"},
      {"compound": "CC(=O)Oc1cccc(C(=O)O)c1OC(C)=O", "note": "[dipyrocetyl]", "percent viability": "249%"},
      {"compound": "CN(C)CCC(c1ccccc1)c1ccccn1", "note": "(centres undefined) [pheniramine]", "percent viability": "177%"},
      {"compound": "NC(Cc1c[nH]c2ccc(O)cc12)C(=O)O", "note": "(centres undefined)", "percent viability": "302%"},
      {"compound": "C/N=C(/NC#N)NCCSCc1csc(NC(=N)N)n1", "note": "[tiotidine]", "percent viability": "153%"},
      {"compound": "CCOc1ccc(C[C@H]2NC(=O)CCSSC[C@@H](C(=O)N3CCC[C@H]3C(=O)N[C@@H](CCCN)C(=O)NCC(N)=O)NC(=O)[C@H](CC(N)=O)NC(=O)[C@H]([C@@H](C)O)NC(=O)[C@H]([C@@H](C)CC)NC2=O)cc1", "note": "[atosiban]", "percent viability": "222%"},
      {"compound": "CN[C@H]1C(=O)N[C@@H]2Cc3ccc(cc3)Oc3cc4cc(c3O[C@@H]3O[C@H](C(=O)O)[C@@H](O)[C@H](O)[C@H]3NC(=O)CCCCCCCCC(C)C)Oc3ccc(cc3Cl)[C@@H](O)[C@@H]3NC(=O)[C@H](NC(=O)[C@@H]4NC(=O)[C@@H](NC2=O)c2cc(cc(O)c2Cl)Oc2cc1ccc2O)c1ccc(O)c(c1)-c1c(O[C@H]2O[C@H](CO)[C@@H](O)[C@H](O)[C@@H]2O)cc(O)cc1[C@@H](C(=O)NCCCN(C)C)NC3=O", "note": "[Dalbavancin]", "percent viability": "176%"},
      {"compound": "Cn1c([N+](=O)[O-])cnc1COC(N)=O", "note": "[ronidazole]", "percent viability": "163%"},
      {"compound": "CNC(=O)c1ccc(Cl)c(S(=O)(=O)NC)c1", "note": "[tiamizide]", "percent viability": "155%"},
      {"compound": "Clc1ccc(C(Cn2ccnc2)OCc2c(Cl)cccc2Cl)c(Cl)c1", "note": "(centres undefined) [isoconazole]", "percent viability": "207%"},
      {"compound": "CCOC(=O)C1=C(C)NC(C)=C(C(=O)OC)C1c1cccc([N+](=O)[O-])c1", "note": "(centres undefined) [nitrendipine]", "percent viability": "376%"},
      {"compound": "CN1Cc2c(N)cccc2C(c2ccccc2)C1", "note": "(centres undefined)", "percent viability": "146%"},
      {"compound": "CCCCC(CC)COC(=O)c1ccccc1O", "note": "(centres undefined)", "percent viability": "126%"},
      {"compound": "CN(C)[C@@H]1C(=O)C(C(N)=O)=C(O)[C@@]2(O)C(=O)C3=C(O)c4c(O)cccc4C[C@H]3C[C@@H]12", "note": "[sancycline]", "percent viability": "355%"},
      {"compound": "Cc1c(OCC(F)(F)F)ccnc1C[S@@+]([O-])c1nc2ccccc2[nH]1", "note": "[dexlansoprazole]", "percent viability": "35.9%"},
      {"compound": "O=C(c1ccccc1)c1ccc2n1CCC2C(=O)O", "note": "(centres undefined) [ketorolac]", "percent viability": "224%"},
      {"compound": "CNC[C@H](O)[C@@H](O)[C@H](O)[C@H](O)CO", "note": "[Meglumine]", "percent viability": "130%"},
      {"compound": "C[C@]12CC[C@@H]3c4ccc(O)cc4C[C@@H](CCCCCCCCC[S+]([O-])CCCC(F)(F)C(F)(F)F)[C@H]3[C@@H]1CC[C@@H]2O", "note": "(some centres undefined)", "percent viability": "350%"},
      {"compound": "O=C1Cc2cc(CCN3CCN(c4nsc5ccccc45)CC3)c(Cl)cc2N1", "percent viability": "201%"},
      {"compound": "C[C@H]1[C@H](O)O[C@@H]2O[C@@]3(C)CC[C@H]4[C@H](C)CC[C@@H]1[C@@]24OO3", "percent viability": "48.9%"},
      {"compound": "CN[C@H]1CC[C@@H](c2ccc(Cl)c(Cl)c2)c2ccccc21", "note": "[sertraline]", "percent viability": "307%"},
      {"compound": "Cc1sc[n+](CC(=O)c2ccccc2)c1C", "note": "[alagebrium chloride]", "percent viability": "215%"},
      {"compound": "CCOC(=O)O[C@]1(C(=O)COC(=O)CC)CC[C@H]2[C@@H]3CCC4=CC(=O)C=C[C@]4(C)[C@H]3[C@@H](O)C[C@@]21C", "percent viability": "213%"},
      {"compound": "C[C@]12C=CC(=O)C=C1CC[C@@H]1[C@@H]2[C@@H](O)C[C@@]2(C)[C@H]1CC[C@]2(O)C(=O)COP(=O)(O)O", "percent viability": "192%"},
      {"compound": "CC(=O)OC/C=C(C)/C=C/C=C(C)/C=C/C1=C(C)CCCC1(C)C", "percent viability": "308%"},
      {"compound": "O=C1O[C@H](CO)[C@@H](O)[C@H](O)[C@H]1O", "percent viability": "254%"},
      {"compound": "COc1cc2nc(N3CCN(C(=O)C4CCCO4)CC3)nc(N)c2cc1OC", "note": "(centres undefined)", "percent viability": "232%"}
    ]}
  ]
}
